# Measurements reported in article PMC7526454 (JCI Insight, 2020).
# Amino acid sequences for entries named in this document (tags omitted). Residues count along the entry.
# UniProt O35659, residues 22-463: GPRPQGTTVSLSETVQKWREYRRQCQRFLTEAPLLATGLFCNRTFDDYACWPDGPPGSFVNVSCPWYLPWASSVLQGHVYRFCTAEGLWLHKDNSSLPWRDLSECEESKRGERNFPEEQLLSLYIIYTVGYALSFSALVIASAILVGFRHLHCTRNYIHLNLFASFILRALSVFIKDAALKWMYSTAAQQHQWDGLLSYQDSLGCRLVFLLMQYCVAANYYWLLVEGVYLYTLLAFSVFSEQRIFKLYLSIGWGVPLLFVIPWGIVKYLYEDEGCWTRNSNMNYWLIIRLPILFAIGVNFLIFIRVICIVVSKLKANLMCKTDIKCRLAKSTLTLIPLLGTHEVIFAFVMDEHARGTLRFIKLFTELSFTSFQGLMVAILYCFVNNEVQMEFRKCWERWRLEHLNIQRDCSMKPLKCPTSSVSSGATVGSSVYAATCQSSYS
# UniProt P43220, residues 24-463: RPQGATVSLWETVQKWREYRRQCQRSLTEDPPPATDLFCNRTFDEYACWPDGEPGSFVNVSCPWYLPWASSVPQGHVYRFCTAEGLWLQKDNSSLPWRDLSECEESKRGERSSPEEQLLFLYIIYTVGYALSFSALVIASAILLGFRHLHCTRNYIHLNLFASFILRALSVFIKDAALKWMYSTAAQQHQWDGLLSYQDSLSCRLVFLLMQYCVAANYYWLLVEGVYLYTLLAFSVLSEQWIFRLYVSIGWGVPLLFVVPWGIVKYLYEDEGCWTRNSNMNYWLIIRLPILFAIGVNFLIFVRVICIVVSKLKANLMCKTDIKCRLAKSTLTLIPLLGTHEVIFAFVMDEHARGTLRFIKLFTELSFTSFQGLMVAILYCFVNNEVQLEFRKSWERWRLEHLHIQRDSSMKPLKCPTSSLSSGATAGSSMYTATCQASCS
# UniProt P49407: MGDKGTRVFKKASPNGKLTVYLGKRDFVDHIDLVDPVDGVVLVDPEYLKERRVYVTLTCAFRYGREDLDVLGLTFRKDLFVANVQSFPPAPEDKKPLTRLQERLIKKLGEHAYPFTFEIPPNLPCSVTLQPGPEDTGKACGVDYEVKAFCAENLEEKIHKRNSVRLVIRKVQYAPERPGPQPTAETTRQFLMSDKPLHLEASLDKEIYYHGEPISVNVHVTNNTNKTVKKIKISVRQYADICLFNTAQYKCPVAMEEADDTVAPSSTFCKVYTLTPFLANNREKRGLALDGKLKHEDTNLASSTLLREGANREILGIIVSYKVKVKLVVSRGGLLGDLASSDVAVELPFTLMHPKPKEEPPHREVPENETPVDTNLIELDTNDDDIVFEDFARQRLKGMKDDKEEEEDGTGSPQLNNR
# UniProt P32121: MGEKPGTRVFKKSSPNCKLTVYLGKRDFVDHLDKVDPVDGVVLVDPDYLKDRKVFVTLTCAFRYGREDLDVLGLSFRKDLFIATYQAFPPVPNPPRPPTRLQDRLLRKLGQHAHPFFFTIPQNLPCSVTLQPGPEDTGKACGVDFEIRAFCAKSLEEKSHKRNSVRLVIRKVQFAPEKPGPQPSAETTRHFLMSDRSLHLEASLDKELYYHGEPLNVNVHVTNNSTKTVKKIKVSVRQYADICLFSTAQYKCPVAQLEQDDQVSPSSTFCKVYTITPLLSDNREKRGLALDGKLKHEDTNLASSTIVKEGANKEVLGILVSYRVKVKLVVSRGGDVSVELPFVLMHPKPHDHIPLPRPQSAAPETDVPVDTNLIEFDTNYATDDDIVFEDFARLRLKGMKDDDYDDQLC
# Results are given in words; binding and its absence hold for the method and conditions named. Binding seen in cells or lysates may run through a third protein. Some binding calls cover weakened binding; strength is not graded here.
# What was measured:
# [1] = target: mouse GLP-1R–LgBiT (mouse) (UniProt O35659); experiment: split reporter; NanoLuc enzyme complementation of mouse GLP-1R–LgBiT and ARRB1/2-SmBiT in transiently transfected cells; Nano-Glo substrate; stimulated with concentration series of GLP-1 or tirzepatide
# [2] = target: mouse GLP-1R–LgBiT (mouse) (UniProt O35659); experiment: split reporter; NanoLuc enzyme complementation (LgBiT/SmBiT) in transiently transfected cells; reference agonist GLP-1 (repeated from the profile of Figure 1J)
# [3] = target: mouse GLP-1R–LgBiT (mouse) (UniProt O35659); experiment: split reporter; NanoLuc enzyme complementation (LgBiT/SmBiT) in transiently transfected cells; stimulated with tirzepatide
# [4] = target: human GLP-1R with C-terminally fused ProLink1 (human) (UniProt P43220); experiment: split reporter; β-galactosidase enzyme fragment complementation (PathHunter) in CHO-K1 cells; agonist-induced: GIP(1-42) or tirzepatide at GIPR, GLP-1(7-36) at GLP-1R; 37°C for 90 minutes, 0.1% casein
# [5] = target: human GLP-1R-HaloTag (human) (UniProt P43220); experiment: FRET or BRET; NanoBRET in transfected Freestyle HEK cells, PBS with 0.1% casein; stimulated with tirzepatide
# [6] = target: human GLP-1R-HaloTag (human) (UniProt P43220); experiment: FRET or BRET; NanoBRET of NanoLuc-ARRB1/2 (donor) and human GLP-1R-HaloTag with NanoBRET 618 ligand (acceptor) in transfected Freestyle HEK cells; 1x PBS, 0.1% w/v bovine casein; stimulated with concentration series of GLP-1 or tirzepatide
# [7] = target: human GLP-1R-HaloTag (human) (UniProt P43220); experiment: FRET or BRET; NanoBRET in transfected Freestyle HEK cells, PBS with 0.1% casein; reference agonist GLP-1 (repeated from the profile of Figure 1J)
Substance,binding [1],binding [2],binding [3],binding [4],binding [5],binding [6],binding [7]
ARRB1-SmBiT (from UniProt P49407 1-418),binds,binds,binds weakly,–,–,–,–
ARRB2-SmBiT (from UniProt P32121 1-409),binds,binds,binds weakly,–,–,–,–
Enzyme Acceptor fused ARRB2 (β-arrestin2) (from UniProt P32121 1-409),–,–,–,binds,–,–,–
NanoLuc-ARRB1 (from UniProt P49407 1-418),–,–,–,–,binds weakly,binds,binds
NanoLuc-ARRB2 (from UniProt P32121 1-409),–,–,–,–,binds weakly,binds,binds
